Hit rate of the full screen: of about 31,000 sequences, about 1,400 (4.5%) were called active.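 Rule for the calls: active = median seed-adjusted z-score above 1 or below -1; inactive = the rest.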 The list shows a part of the results.

The experiment can be described thus: Novel Modifiers of Survival Motor Neuron (SMN) Protein: Gene Identification via Genome-wide siRNA Screen.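 Note: luminescence tracks full-length SMN protein made from the SMN2 reporter.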 The note with it: HEK293T SMN2-luciferase reporter, siRNA knockdown, 72 h; actives lie on both sides. In short, it runs like this: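 HEK293T cells stably carrying an SMN2 promoter/splicing cassette–luciferase reporter were reverse-transfected with 1 pmol siRNA per well (druggable-genome library, 3 siRNAs per gene) and grown 72 h at 37 °C. Luminescence, normalized to negative-control siRNA and log10-transformed, was scored as MAD.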
Turning to GCAGUGGAUAGGUACGUCATT against MC5R, the median seed-adjusted z-score is inactive: 0.225.

Regarding ACAUCAAAAGGAAUGACUUTT against EIF5A, the median seed-adjusted z-score is inactive: 0.00397. Turning to CAGUAUCCAUGGUGAUCUATT against ZP2, the median seed-adjusted z-score is inactive: 0.0455.

Turning to GAUGAUGACUGGUUGAAGATT against PPIE, the median seed-adjusted z-score is inactive: -0.699. Then CCCAGACUCUGUAAGGUGATT against PAQR5, with inactive: -0.0985. Regarding ACUUCCCUCCAGUACCUGUTT against SPSB3, the median seed-adjusted z-score is inactive: 0.457.

As for CCGUUUUAAUGGUGUUUCATT against TDG, the median seed-adjusted z-score is inactive: 0.0549. Then GCACAAGACGAACUCAGUATT against UBE2J2, with inactive: -0.341. For the sequence GGGUCUAUGCAACACCGUUTT against AASDH, the median seed-adjusted z-score was inactive: 0.156.

Regarding GCAAUUUGCUUCUAUAUGATT against PCDHB5, the median seed-adjusted z-score was inactive: 0. As for GAGUUGGAACAGUCGGCUATT against GRK4, the median seed-adjusted z-score was inactive: -0.267. The same measure for AAAUAUUCCUCGUGCUAAATT against BRSK1: inactive: -0.0495; for GUUUUAUCCUAUAUUCAUATT against MGST2: inactive: 0.387.

CGCAAGCAAGAGGAACAAATT against PSIP1: the median seed-adjusted z-score is inactive: 0.549. Then GGUUUACAGCACCAAAUAATT against ARSB, with inactive: 0.914; and AAGAGAACGUGAACACCUATT against DNAJC5, with inactive: -0.0844. Take CAACUGUUGGACAACAAAATT against TMEM87B: the median seed-adjusted z-score was inactive: -0.51. As to CUGAGUUACUGGGCCCAGATT against S100A8, the median seed-adjusted z-score was inactive: -0.337. As to GGUCUUUAAGCCUCACCAATT against ESAM, the median seed-adjusted z-score was inactive: 0.314. Then GCAUCACCAUCCUUCCGCATT against BACE1, with inactive: -0.537. Then GGAUGAGAUUGUAAUGCAATT against KLHL18, with inactive: -0.126. The same measure for CACCAGGGAUCACACCUUATT against ZNF304: inactive: -0.44; for CGACAACCCGGAAAGAUUUTT against TRIML1: inactive: 0.

As for GGAGGAGCUAUUACGAAUATT against KATNA1, the median seed-adjusted z-score was inactive: -0.471. CGUGCAAGGUUCAAAGAGATT against HPSE: the median seed-adjusted z-score is inactive: 0.153. On to AGCUCAUAGCUGACCCAGATT against ZC3H3, for which the median seed-adjusted z-score was inactive: -0.622. Turning to CUGUCUCGCUUCAUCCAUATT against ULK3, the median seed-adjusted z-score is inactive: -0.73. Then GCGUAUUAGAAGACUUGUATT against LRRC17, with inactive: 0.0234. Take GAUCCUAAUAUGAAGUUAUTT against FUBP1: the median seed-adjusted z-score was active: -1.52. The same measure for GUCCAACUGGGAAAAGAUATT against MSRB3: inactive: -0.218; for GCUCCAACAUAACAGAAGATT against NR2C2: inactive: -0.498. With GCUUCGACGGUAUCCUCUATT against KCNA5, the median seed-adjusted z-score is inactive: 0.206. For GCUUAACAGUAAUAUGGUUTT against GABRG1, the median seed-adjusted z-score was inactive: 0.312. For the sequence GGAGAACCACAGUUGCUUUTT against IL17RA, the median seed-adjusted z-score is active: -1.29. Then CCAUCUCGAGGGACUAUAATT against SERPINA3, with inactive: 0.125; and GACUUUGGAUUCGAACUAATT against KCTD15, with inactive: 0.982. For GCACUAGCCCAACAUCAGATT against ZNF454, the median seed-adjusted z-score is inactive: 0. The same measure for CAUCCUUUUUCAGUACUAATT against LHX6: inactive: -0.717; for GGAGCCUUUUGAUAUUGAUTT against C1R: inactive: -0.541. As to CCUUGUCACAGGUCAAUCATT against VWF, the median seed-adjusted z-score was inactive: 0.159. In the case of GAUCAACGGCUAUAAGGCATT against DSC3, the median seed-adjusted z-score is inactive: 0.18. In the case of GGUGCUUCAAUUUAACAGATT against SERPINB10, the median seed-adjusted z-score is inactive: 0.00387. Then GACAAAUACGUAGAGCUCATT against NDUFA7, with inactive: 0.356; and GGACAUGAUUUCCUACAAUTT against DPT, with inactive: 0.073. The same measure for CGUUUGUCCAGAAGCGGUATT against AFMID: inactive: -0.515.

For GCGUGAUCCUUGCCUCUAATT against GDPD4, the median seed-adjusted z-score was inactive: 0.0109. The same measure for CCAUCAAAAUCGCAGACUUTT against DDR1: inactive: -0.166. Then GGAACUUAUUGAGCUUAUUTT against SWAP70, with inactive: -0.704; and CUAUGGGUCUCGACACUUATT against QPCT, with inactive: 0.933; and GCUGGUACUUCUACCGUCATT against RHBDL1, with inactive: -0.365. As for GCCUUGUCGAAUUCUGUCATT against FOXO3, the median seed-adjusted z-score was inactive: -0.712. Consider CGUGGGAUCCAAUACAUAUTT against IAPP, for which the median seed-adjusted z-score was inactive: -0.157. For the sequence GCUCUUUGCCUAUAGCUCATT against RBL1, the median seed-adjusted z-score is inactive: -0.0547.

In the case of CCAGAUCAGUAGGAUUGAATT against OSMR, the median seed-adjusted z-score is inactive: 0.548. The same measure for CGAUGGGUAUGAGCCUGGATT against ATHL1: inactive: 0. GAACCGACAAAAGUAGAUATT against RARB: the median seed-adjusted z-score was inactive: 0.409.

For the sequence GAGAGUUCAUUUACCUAAATT against ANGPTL2, the median seed-adjusted z-score was inactive: 0.141. Regarding CCACGUUCACCAAGAUCUUTT against RBM38, the median seed-adjusted z-score was inactive: 0.0358. Consider GCAUUGGAACGAUUCUAAATT against CTPS2, for which the median seed-adjusted z-score is active: 1.08. Then GACUCCCAAUACAACCCAATT against DDX24, with inactive: 0.246; and GAAUCUAAGCGAUAAUAAUTT against FSHR, with inactive: -0.462.

In the case of GAACUCCUCGUCUUACUUUTT against CDC2L2, the median seed-adjusted z-score was inactive: 0.153.

Consider UGACAUACGUGAAAAGUCUTT against ZNF77, for which the median seed-adjusted z-score was inactive: 0.345. For GUUAGAACCUGGAAACGUATT against SPAG1, the median seed-adjusted z-score was inactive: 0.413. The same measure for GCAGGACCUUUUAGCAUCUTT against LYL1: inactive: -0.118; for CCAUCGACAUGGACACGCATT against JUND: inactive: -0.334. Then GAAUAACCGUUGGUUUAAUTT against U2AF1, with active: 2.08.

For CAGCGGAUCGUGUGAAGAATT against UPF1, the median seed-adjusted z-score was inactive: 0.253.

For the sequence GGCAAUCGGUGGUAGUAAATT against PAX6, the median seed-adjusted z-score was inactive: -0.275. Take GGAUGACUAUGAACAUGCATT against RNMT: the median seed-adjusted z-score is inactive: -0.281. With CAACGGCAGGAAAUUCUAATT against KLRA1, the median seed-adjusted z-score is inactive: 0.918. Then GCAACACGCUAGAAGGGUUTT against HAT1, with inactive: -0.622; and CUACCAUGGUGUACCAACATT against QRICH1, with active: -1.04; and CUCUGAGUAUGUGACCGAATT against XPNPEP1, with active: -1.5. The same measure for CGGUCUACAGCAUCGAGUATT against IL22RA1: active: -1.14; for GCAUUUGGAAGUUACUGUUTT against YAF2: inactive: 0; for GACCAACAAUUAAGAACGATT against TRAF3IP3: inactive: 0.0238. Regarding CGAUUCUUCUCACCCACAUTT against KCTD21, the median seed-adjusted z-score was inactive: 0.0236. The same measure for CCACGAGUAUUACUACAUCTT against EFNA2: inactive: -0.314. With GCUGCAAAAUUCUUGACAATT against DCTN5, the median seed-adjusted z-score is inactive: 0.0112. Take AUCUACAGCUUGCUAGGUATT against SLC26A10: the median seed-adjusted z-score was inactive: -0.169.

On to GCCCAGUUGUUUGCUAUCATT against FSTL1, for which the median seed-adjusted z-score was inactive: 0.503.

Regarding GGAAUGACAAGGAACUAUATT against BCO2, the median seed-adjusted z-score is inactive: -0.183.

On to GGCUCGCUUCAAUGACAUATT against ADAM29, for which the median seed-adjusted z-score is inactive: 0.904. For GGGAAGAUUUCAUCCUUAATT against MVK, the median seed-adjusted z-score was inactive: -0.192. As to UGCACGUGGUGUAACCUCATT against TNFRSF4, the median seed-adjusted z-score is inactive: 0.311. As for CCUAUACUGUGGGCUAUAATT against STARD4, the median seed-adjusted z-score was inactive: 0.173.

On to GGAUCUCAGUCAAAGGCAUTT against CPZ, for which the median seed-adjusted z-score is inactive: -0.0748. Turning to GCUCCGAGGGUAUCAAGUATT against AP1M2, the median seed-adjusted z-score was inactive: 0.0641. Then ACCAAAUGAUGACCACCAATT against CHRNA2, with inactive: -0.513. With CCUCAGGUGCAGAAAGUCATT against GAL3ST2, the median seed-adjusted z-score was inactive: 0. The same measure for AGAAGGUUCAGGACCUAGATT against ACE: inactive: 0.0874; for CGAUUACAGUGCCCAGGAUTT against NEBL: inactive: 0.0769; for CACCUACAUCAACAUAAAATT against ZNF714: inactive: 0.

Turning to CGAUCAUCCGGACAUCAAATT against ALDH6A1, the median seed-adjusted z-score was inactive: -0.0908. Then GACUAGUACUUACGGCUUUTT against RBM15, with inactive: -0.409. The same measure for GGACAGAUCUGCAAAGAGATT against CETP: inactive: 0; for CCACCGAUAUUUCCUGGAATT against RNASEH2A: inactive: -0.158. Turning to CAAGAAUGACUGUGAUGAATT against PLA2G12A, the median seed-adjusted z-score is inactive: 0.139. Then GAAUGGUUUUCUUAGCAUATT against GNG4, with inactive: -0.188. Then GAGACACGGUGUAUGAAGATT against MYO5B, with inactive: -0.212; and CUCUACGAAUGGUUACCGATT against PSMD12, with inactive: 0.956; and CCAUCCCAGCUAUCCUGUUTT against CCL21, with inactive: -0.227.

For the sequence GGUGCUUACAACUGACUAATT against TLR6, the median seed-adjusted z-score is inactive: 0.505. In the case of GGUUGAUACCCAAAGAUCATT against POLB, the median seed-adjusted z-score was inactive: 0.376. GGAAUACCUAAACUUCGAATT against MUT: the median seed-adjusted z-score is inactive: 0.333.

Consider CCCUCUUGGUGUUCGACUATT against CDH3, for which the median seed-adjusted z-score was inactive: -0.138. The same measure for CAAUGGUACCUAUGACUAUTT against ALG3: inactive: -0.446.

Values taken from PubChem BioAssay AID1347426 (Functional Genomics Laboratory (NCATS/FGL), 2020).
